At least one peptide structure holds a part that was inferred or is arguable (an end, a ring closure or a residue).
Test: sweetness compared with sucrose / taste

In the case of COC(=O)[C@H](Cc1ccccc1)NC(=O)C1(N)CC1C(=O)O (some centres unmarked) [Example XXXVIII, 1-Aminocyclopropane-2-carboxylic Acid-1-carboxyl Phenylalanine Methyl Ester], the “equivalent in sweetness power” value (one packet of 0.035 oz. or l gram) is reported as 2 teaspoonfuls of sucrose and the taste (paper example (synthesis worded 'should be')) is reported as “very sweet to the taste”.

— patent publication EP0135429B1, “The synthesis of cyclopropane amino acids and peptides” (THE UNIVERSITY OF GEORGIA RESEARCH FOUNDATION, INC., priority 1983, dated 1992)
